Laboratory results: paper doi:10.1101/871517

The chains behind the UniProt entries cited, without tags or fusion partners.
UniProt Q9NP72: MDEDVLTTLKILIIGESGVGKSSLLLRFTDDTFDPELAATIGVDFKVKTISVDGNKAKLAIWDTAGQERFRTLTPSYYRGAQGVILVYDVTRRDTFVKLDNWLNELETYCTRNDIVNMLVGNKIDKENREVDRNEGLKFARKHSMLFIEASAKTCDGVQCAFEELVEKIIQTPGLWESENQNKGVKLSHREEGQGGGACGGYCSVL

How the values were obtained:
Assay in all cases: proximity labelling
BirA*-RAB18, Q9NP72 [1] = conditions: remark: other sources report otherwise
BirA*-RAB18, Q9NP72 [2] = conditions: remark: other sources report otherwise; remark: listed apart in the source
BirA*-RAB18 [3] = molecular target: BirA*-RAB18 (UniProt Q9NP72)
BirA*-RAB18 [4] = molecular target: BirA*-RAB18 (UniProt Q9NP72); remark: listed apart in the source
BirA*-RAB18 [5] = molecular target: BirA*-RAB18 (UniProt Q9NP72); remark: listed apart in the source

binding (BirA*-RAB18, Q9NP72 [1]): binds
binding (BirA*-RAB18, Q9NP72 [2]): binds
B1: SPG20, Q8N0X7 1-666 (protein)
chain: MEQEPQNGEPAEIKIIREAYKKAFLFVNKGLNTDELGQKEEAKNYYKQGIGHLLRGISISSKESEHTGPGWESARQMQQKMKETLQNVRTRLEILEKGLATSLQNDLQEVPKLYPEFPPKDMCEKLPEPQSFSSAPQHAEVNGNTSTPSAGAVAAPASLSLPSQSCPAEAPPAYTPQAAEGHYTVSYGTDSGEFSSVGEEFYRNHSQPPPLETLGLDADELILIPNGVQIFFVNPAGEVSAPSYPGYLRIVRFLDNSLDTVLNRPPGFLQVCDWLYPLVPDRSPVLKCTAGAYMFPDTMLQAAGCFVGVVLSSELPEDDRELFEDLLRQMSDLRLQANWNRAEEENEFQIPGRTRPSSDQLKEASGTDVKQLDQGNKDVRHKGKRGKRAKDTSSEEVNLSHIVPCEPVPEEKPKELPEWSEKVAHNILSGASWVSWGLVKGAEITGKAIQKGASKLRERIQPEEKPVEVSPAVTKGLYIAKQATGGAAKVSQFLVDGVCTVANCVGKELAPHVKKHGSKLVPESLKKDKDGKSPLDGAMVVAASSVQGFSTVWQGLECAAKCIVNNVSAETVQTVRYKYGYNAGEATHHAVDSAVNVGVTAYNINNIGIKAMVKKTATQTGHTLLEDYQIVDNSQRENQEGAANVNVRGEKDEQTKEVKEAKKKDK

binding (BirA*-RAB18 [3]): binds
binding (BirA*-RAB18 [4]): binds
binding (BirA*-RAB18 [5]): no binding (only in RAB3GAP1-null cells)
B2: ZW10 (protein, UniProt O43264 1-779)
chain: MASFVTEVLAHSGRLEKEDLGTRISRLTRRVEEIKGEVCNMISKKYSEFLPSMQSAQGLITQVDKLSEDIDLLKSRIESEVRRDLHVSTGEFTDLKQQLERDSVVLSLLKQLQEFSTAIEEYNCALTEKKYVTGAQRLEEAQKCLKLLKSRKCFDLKILKSLSMELTIQKQNILYHLGEEWQKLIVWKFPPSKDTSSLESYLQTELHLYTEQSHKEEKTPMPPISSVLLAFSVLGELHSKLKSFGQMLLKYILRPLASCPSLHAVIESQPNIVIIRFESIMTNLEYPSPSEVFTKIRLVLEVLQKQLLDLPLDTDLENEKTSTVPLAEMLGDMIWEDLSECLIKNCLVYSIPTNSSKLQQYEEIIQSTEEFENALKEMRFLKGDTTDLLKYARNINSHFANKKCQDVIVAARNLMTSEIHNTVKIIPDSKINVPELPTPDEDNKLEVQKVSNTQYHEVMNLEPENTLDQHSFSLPTCRISESVKKLMELAYQTLLEATTSSDQCAVQLFYSVRNIFHLFHDVVPTYHKENLQKLPQLAAIHHNNCMYIAHHLLTLGHQFRLRLAPILCDGTATFVDLVPGFRRLGTECFLAQMRAQKGELLERLSSARNFSNMDDEENYSAASKAVRQVLHQLKRLGIVWQDVLPVNIYCKAMGTLLNTAISEVIGKITALEDISTEDGDRLYSLCKTVMDEGPQVFAPLSEESKNKKYQEEVPVYVPKWMPFKELMMMLQASLQEIGDRWADGKGPLAAAFSSSEVKALIRALFQNTERRAAALAKIK

binding (BirA*-RAB18 [3]): binds
B3: REEP4 (protein, UniProt Q9H6H4 1-257)
chain: MVSWMICRLVVLVFGMLCPAYASYKAVKTKNIREYVRWMMYWIVFALFMAAEIVTDIFISWFPFYYEIKMAFVLWLLSPYTKGASLLYRKFVHPSLSRHEKEIDAYIVQAKERSYETVLSFGKRGLNIAASAAVQAATKSQGALAGRLRSFSMQDLRSISDAPAPAYHDPLYLEDQVSHRRPPIGYRAGGLQDSDTEDECWSDTEAVPRAPARPREKPLIRSQSLRVVKRKPPVREGTSRSLKVRTRKKTVPSDVDS

binding (BirA*-RAB18 [3]): binds
B4: C2CD2L/TMEM24 (protein, UniProt O14523 1-706)
chain: MDPGWGQRDVGWAALLILFAASLLTVFAWLLQYARGLWLARARGDRGPGPALAGEPAGSLRELGVWRSLLRLRATRAGAAEEPGVRGLLASLFAFKSFRENWQRAWVRALNEQACRNGSSIQIAFEEVPQLPPRASISHVTCVDQSEHTMVLRCQLSAEEVRFPVSVTQQSPAAVSMETYHVTLTLPPTQLEVNLEEIPGEGLLISWAFTDRPDLSLTVLPKLQARERGEEQVELSTIEELIKDAIVSTQPAMMVNLRACSAPGGLVPSEKPPMMPQAQPAIPRPNRLFLRQLRASHLGNELEGTEELCCVAELDNPMQQKWTKPARAGSEVEWTEDLALDLGPQSRELTLKVLRSSSCGDTELLGQATLPVGSPSRPLSRRQLCPLTPGPGKALGPAATMAVELHYEEGSPRNLGTPTSSTPRPSITPTKKIELDRTIMPDGTIVTTVTTVQSRPRIDGKLDSPSRSPSKVEVTEKTTTVLSESSGPSNTSHSSSRDSHLSNGLDPVAETAIRQLTEPSGRVAKKTPTKRSTLIISGVSKVPIAQDELALSLGYAASLEASVQDDAGTSGGPSSPPSDPPAMSPGPLDALSSPTSVQEADETTRSDISERPSVDDIESETGSTGALETRSLKDHKVSFLRSGTKLIFRRRPRQKEAGLSQSHDDLSNATATPSVRKKAGSFSRRLIKRFSFKSKPKANGNPSPQL

binding (BirA*-RAB18 [3]): binds
binding (BirA*-RAB18 [4]): binds
binding (BirA*-RAB18 [5]): no binding (only in RAB3GAP1-null cells)
B5: RAB3GAP2 (protein, UniProt Q9H2M9 1-1393)
chain: MACSIVQFCYFQDLQAARDFLFPHLREEILSGALRRDPSKSTDWEDDGWGAWEENEPQEPEEEGNTCKTQKTSWLQDCVLSLSPTNDLMVIAREQKAVFLVPKWKYSDKGKEEMQFAVGWSGSLNVEEGECVTSALCIPLASQKRSSTGRPDWTCIVVGFTSGYVRFYTENGVLLLAQLLNEDPVLQLKCRTYEIPRHPGVTEQNEELSILYPAAIVTIDGFSLFQSLRACRNQVAKAAASGNENIQPPPLAYKKWGLQDIDTIIDHASVGIMTLSPFDQMKTASNIGGFNAAIKNSPPAMSQYITVGSNPFTGFFYALEGSTQPLLSHVALAVASKLTSALFNAASGWLGWKSKHEEEAVQKQKPKVEPATPLAVRFGLPDSRRHGESICLSPCNTLAAVTDDFGRVILLDVARGIAIRMWKGYRDAQIGWIQTVEDLHERVPEKADFSPFGNSQGPSRVAQFLVIYAPRRGILEVWSTQQGPRVGAFNVGKHCRLLYPGYKIMGLNNVTSQSWQPQTYQICLVDPVSGSVKTVNVPFHLALSDKKSERAKDMHLVKKLAALLKTKSPNLDLVETEIKELILDIKYPATKKQALESILASERLPFSCLRNITQTLMDTLKSQELESVDEGLLQFCANKLKLLQLYESVSQLNSLDFHLDTPFSDNDLALLLRLDEKELLKLQALLEKYKQENTRTNVRFSDDKDGVLPVKTFLEYLEYEKDVLNIKKISEEEYVALGSFFFWKCLHGESSTEDMCHTLESAGLSPQLLLSLLLSVWLSKEKDILDKPQSICCLHTMLSLLSKMKVAIDETWDSQSVSPWWQQMRTACIQSENNGAALLSAHVGHSVAAQISNNMTEKKFSQTVLGADSEALTDSWEALSLDTEYWKLLLKQLEDCLILQTLLHSKGNTQTSKVSSLQAEPLPRLSVKKLLEGGKGGIADSVAKWIFKQDFSPEVLKLANEERDAENPDEPKEGVNRSFLEVSEMEMDLGAIPDLLHLAYEQFPCSLELDVLHAHCCWEYVVQWNKDPEEARFFVRSIEHLKQIFNAHVQNGIALMMWNTFLVKRFSAATYLMDKVGKSPKDRLCRRDVGMSDTAMTSFLGSCLDLLQILMEADVSRDEIQVPVLDTEDAWLSVEGPISIVELALEQKHIHYPLVEHHSILCSILYAVMRFSLKTVKPLSLFDSKGKNAFFKDLTSIQLLPSGEMDPNFISVRQQFLLKVVSAAVQAQHSATKVKDPTEEATPTPFGKDQDWPALAVDLAHHLQVSEDVVRRHYVGELYNYGVDHLGEEAILQVHDKEVLASQLLVLTGQRLAHALLHTQTKEGMELLARLPPTLCTWLKAMDPQDLQNTEVPIATTAKLVNKVIELLPEKHGQYGLALHLIEAVEAISLPSL

binding (BirA*-RAB18 [3]): binds
B6: BNIP1 (protein, UniProt Q12981 1-228)
chain: MAAPQDVHVRICNQEIVKFDLEVKALIQDIRDCSGPLSALTELNTKVKEKFQQLRHRIQDLEQLAKEQDKESEKQLLLQEVENHKKQMLSNQASWRKANLTCKIAIDNLEKAELLQGGDLLRQRKTTKESLAQTSSTITESLMGISRMMAQQVQQSEEAMQSLVTSSRTILDANEEFKSMSGTIQLGRKLITKYNRRELTDKLLIFLALALFLATVLYIVKKRLFPFL

binding (BirA*-RAB18 [3]): binds
B7: TRIM13 (protein, UniProt O60858 1-407)
chain: MELLEEDLTCPICCSLFDDPRVLPCSHNFCKKCLEGILEGSVRNSLWRPAPFKCPTCRKETSATGINSLQVNYSLKGIVEKYNKIKISPKMPVCKGHLGQPLNIFCLTDMQLICGICATRGEHTKHVFCSIEDAYAQERDAFESLFQSFETWRRGDALSRLDTLETSKRKSLQLLTKDSDKVKEFFEKLQHTLDQKKNEILSDFETMKLAVMQAYDPEINKLNTILQEQRMAFNIAEAFKDVSEPIVFLQQMQEFREKIKVIKETPLPPSNLPASPLMKNFDTSQWEDIKLVDVDKLSLPQDTGTFISKIPWSFYKLFLLILLLGLVIVFGPTMFLEWSLFDDLATWKGCLSNFSSYLTKTADFIEQSVFYWEQVTDGFFIFNERFKNFTLVVLNNVAEFVCKYKLL

binding (BirA*-RAB18 [3]): binds
B8: TMCO4 (endogenous) (protein, UniProt Q5TGY1 1-634)
chain: MAMWNRPCQRLPQQPLVAEPTAEGEPHLPTGRELTEANRFAYAALCGISLSQLFPEPEHSSFCTEFMAGLVQWLELSEAVLPTMTAFASGLGGEGADVFVQILLKDPILKDDPTVITQDLLSFSLKDGHYDARARVLVCHMTSLLQVPLEELDVLEEMFLESLKEIKEEESEMAEASRKKKENRRKWKRYLLIGLATVGGGTVIGVTGGLAAPLVAAGAATIIGSAGAAALGSAAGIAIMTSLFGAAGAGLTGYKMKKRVGAIEEFTFLPLTEGRQLHITIAVTGWLASGKYRTFSAPWAALAHSREQYCLAWEAKYLMELGNALETILSGLANMVAQEALKYTVLSGIVAALTWPASLLSVANVIDNPWGVCLHRSAEVGKHLAHILLSRQQGRRPVTLIGFSLGARVIYFCLQEMAQEKDCQGIIEDVILLGAPVEGEAKHWEPFRKVVSGRIINGYCRGDWLLSFVYRTSSVQLRVAGLQPVLLQDRRVENVDLTSVVSGHLDYAKQMDAILKAVGIRTKPGWDEKGLLLAPGCLPSEEPRQAAAAASSGETPHQVGQTQGPISGDTSKLAMSTDPSQAQVPVGLDQSEGASLPAAASPERPPICSHGMDPNPLGCPDCACKTQGPSTGLD

binding (BirA*-RAB18 [3]): binds
B9: SEC22A (endogenous) (protein, UniProt Q96IW7 1-307)
chain: MSMILSASVIRVRDGLPLSASTDYEQSTGMQECRKYFKMLSRKLAQLPDRCTLKTGHYNINFISSLGVSYMMLCTENYPNVLAFSFLDELQKEFITTYNMMKTNTAVRPYCFIEFDNFIQRTKQRYNNPRSLSTKINLSDMQTEIKLRPPYQISMCELGSANGVTSAFSVDCKGAGKISSAHQRLEPATLSGIVGFILSLLCGALNLIRGFHAIESLLQSDGDDFNYIIAFFLGTAACLYQCYLLVYYTGWRNVKSFLTFGLICLCNMYLYELRNLWQLFFHVTVGAFVTLQIWLRQAQGKAPDYDV

Like-named read-outs stand apart in the source and are kept apart here. Results are given in words; binding and its absence hold for the method and conditions named. Binding seen in cells or lysates may run through a third protein. These calls come from enrichment with a bait or labelling near it, and not all partners need be listed. For some assays here: No binding means not detected with the bait. Each block holds one binder with its values, some of them ahead of it.
